The record followed here is article PMC10112799.

Amino acid sequences for entries named in this document (tags omitted).
UniProt O60603: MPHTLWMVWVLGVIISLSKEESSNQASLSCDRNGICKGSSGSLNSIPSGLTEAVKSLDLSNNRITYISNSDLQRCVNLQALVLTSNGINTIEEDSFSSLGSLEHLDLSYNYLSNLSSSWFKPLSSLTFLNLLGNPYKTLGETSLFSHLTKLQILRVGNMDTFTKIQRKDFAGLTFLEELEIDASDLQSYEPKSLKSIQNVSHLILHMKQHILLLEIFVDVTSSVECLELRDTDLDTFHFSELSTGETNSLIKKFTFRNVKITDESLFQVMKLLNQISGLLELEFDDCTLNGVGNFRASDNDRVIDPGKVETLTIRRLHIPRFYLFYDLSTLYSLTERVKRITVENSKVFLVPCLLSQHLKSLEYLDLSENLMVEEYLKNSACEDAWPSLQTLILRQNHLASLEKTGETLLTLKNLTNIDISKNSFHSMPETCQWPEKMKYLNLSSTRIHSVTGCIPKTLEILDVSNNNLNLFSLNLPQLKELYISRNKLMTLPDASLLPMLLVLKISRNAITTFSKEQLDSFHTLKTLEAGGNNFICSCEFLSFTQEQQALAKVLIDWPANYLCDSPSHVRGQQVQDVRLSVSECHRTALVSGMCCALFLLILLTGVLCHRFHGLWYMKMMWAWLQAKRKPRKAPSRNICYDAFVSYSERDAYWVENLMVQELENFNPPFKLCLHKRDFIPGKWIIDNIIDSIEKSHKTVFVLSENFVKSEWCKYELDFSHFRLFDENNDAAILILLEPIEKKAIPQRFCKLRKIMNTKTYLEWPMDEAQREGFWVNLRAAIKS

The test has as its target Toll-Like Receptor 2 (TLR2), native (human (endogenous in THP1 and in primary human macrophages)) (UniProt O60603). Nature of the test: affinity purification with mass spectrometry; THP1 macrophages infected with P. gingivalis MOI 10 for 30 min or not infected; live cells cross-linked with DSP (4°C, 2 h); native TLR2 immunoprecipitated with anti-TLR2 (T2.5) on protein G beads; partners eluted with DTT; eluate and beads analysed by LC-MS/MS.

These are yes or no findings as the source states them, for the method shown. Binding seen in cells or lysates may run through a third protein. A yes stands for co-enrichment or nearness to the bait. Other partners may have been found.

“Vinculin (VCL), endogenous (from UniProt P18206-2)”: the binding result is “binds”.
